Results on one substance are retold here after publication PMC3355131.

Protein sequences, listed by entry. Tags and fused reporters are not part of them.
UniProt A0A8I3P974: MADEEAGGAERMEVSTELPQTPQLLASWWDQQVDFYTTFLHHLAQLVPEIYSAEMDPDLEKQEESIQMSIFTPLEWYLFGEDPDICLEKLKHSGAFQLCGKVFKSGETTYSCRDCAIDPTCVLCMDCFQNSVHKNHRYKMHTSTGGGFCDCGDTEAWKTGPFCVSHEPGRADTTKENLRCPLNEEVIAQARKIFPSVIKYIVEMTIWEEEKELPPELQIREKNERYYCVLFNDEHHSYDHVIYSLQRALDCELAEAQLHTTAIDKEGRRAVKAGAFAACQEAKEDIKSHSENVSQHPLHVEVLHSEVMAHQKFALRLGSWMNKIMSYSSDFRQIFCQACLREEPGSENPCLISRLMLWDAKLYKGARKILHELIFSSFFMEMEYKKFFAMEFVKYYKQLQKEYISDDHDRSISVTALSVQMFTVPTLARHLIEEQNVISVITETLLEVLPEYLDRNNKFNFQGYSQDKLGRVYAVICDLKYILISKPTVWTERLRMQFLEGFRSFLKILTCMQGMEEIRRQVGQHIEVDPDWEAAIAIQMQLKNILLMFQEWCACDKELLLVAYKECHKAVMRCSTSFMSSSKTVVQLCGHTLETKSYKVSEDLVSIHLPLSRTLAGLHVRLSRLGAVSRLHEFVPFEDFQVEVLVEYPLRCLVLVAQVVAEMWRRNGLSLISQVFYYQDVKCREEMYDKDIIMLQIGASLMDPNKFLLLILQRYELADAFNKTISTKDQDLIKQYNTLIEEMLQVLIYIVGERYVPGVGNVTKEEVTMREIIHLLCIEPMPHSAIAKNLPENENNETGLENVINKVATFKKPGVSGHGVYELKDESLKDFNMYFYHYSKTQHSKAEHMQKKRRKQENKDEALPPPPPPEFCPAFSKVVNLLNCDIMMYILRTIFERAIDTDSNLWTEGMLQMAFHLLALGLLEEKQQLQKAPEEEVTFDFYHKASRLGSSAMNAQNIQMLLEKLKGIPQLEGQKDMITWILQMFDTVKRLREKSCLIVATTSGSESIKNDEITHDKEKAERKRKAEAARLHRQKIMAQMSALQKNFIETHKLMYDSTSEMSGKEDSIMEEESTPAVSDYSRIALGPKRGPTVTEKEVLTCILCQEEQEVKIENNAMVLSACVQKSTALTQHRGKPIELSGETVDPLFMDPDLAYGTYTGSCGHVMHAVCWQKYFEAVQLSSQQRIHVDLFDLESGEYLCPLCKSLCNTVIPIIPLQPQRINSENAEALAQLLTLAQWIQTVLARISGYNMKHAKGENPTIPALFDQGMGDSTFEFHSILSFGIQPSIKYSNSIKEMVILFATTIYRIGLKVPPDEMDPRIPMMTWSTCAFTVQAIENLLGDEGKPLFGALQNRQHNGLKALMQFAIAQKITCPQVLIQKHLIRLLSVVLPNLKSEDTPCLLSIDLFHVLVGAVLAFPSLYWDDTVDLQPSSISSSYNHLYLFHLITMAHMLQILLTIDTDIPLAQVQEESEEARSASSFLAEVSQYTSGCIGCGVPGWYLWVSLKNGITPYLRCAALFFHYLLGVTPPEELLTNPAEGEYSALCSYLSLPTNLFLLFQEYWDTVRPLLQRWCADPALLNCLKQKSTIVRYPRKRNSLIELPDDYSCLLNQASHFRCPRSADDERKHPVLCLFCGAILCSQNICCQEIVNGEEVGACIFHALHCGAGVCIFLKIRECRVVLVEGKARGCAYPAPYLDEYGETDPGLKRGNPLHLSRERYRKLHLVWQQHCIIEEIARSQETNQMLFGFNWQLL

The assay concerns the target Phe-peptide (12-mer N-end rule X-peptide, X = Phe) (Sindbis virus). Kind of assay: pull-down; C-terminally biotinylated X-peptide on streptavidin-sepharose beads (1-1.5 umol peptide per 1 ml beads) mixed with extracts of rat or dog testes; low (75-150 mM) salt; only the target purified.

No constants are given. Whether binding was seen depends on the method and setting. In cells and extracts the contact can be indirect. Some binding calls cover weakened binding; strength is not graded here.

Regarding “UBR1 (endogenous, from dog testes) (from UniProt A0A8I3P974 1-1753) (enzyme)”, the binding entry is reported as “binds”.
